{"source": "ChEMBL document CHEMBL4316593", "about": "(Eur J Med Chem, 2019)", "format_in_all_cases": "cell-based", "conditions_in_all_cases": "U-87MG ATCC", "key": {"[1]": {"test": "Inhibition of RTK/PI3K/AKT/mTOR signaling in human U87 cells assessed as down regulation of CDC14A gene expression at cytotoxic IC50 measured after 48 hrs relative to control"}, "[2]": {"test": "Inhibition of RTK/PI3K/AKT/mTOR signaling in human U87 cells assessed as up regulation of ZNF33B gene expression at cytotoxic IC50 measured after 48 hrs relative to control"}, "[3]": {"test": "Inhibition of RTK/PI3K/AKT/mTOR signaling in human U87 cells assessed as up regulation of RSL24D1 gene expression at cytotoxic IC50 measured after 48 hrs relative to control"}, "[4]": {"test": "Inhibition of RTK/PI3K/AKT/mTOR signaling in human U87 cells assessed as down regulation of COX6A1 gene expression at cytotoxic IC50 measured after 48 hrs relative to control"}, "[5]": {"test": "Inhibition of RTK/PI3K/AKT/mTOR signaling in human U87 cells assessed as down regulation of FAM53C gene expression at cytotoxic IC50 measured after 48 hrs relative to control"}, "[6]": {"test": "Inhibition of RTK/PI3K/AKT/mTOR signaling in human U87 cells assessed as down regulation of SERPINB8 gene expression at cytotoxic IC50 measured after 48 hrs relative to control"}, "[7]": {"test": "Inhibition of RTK/PI3K/AKT/mTOR signaling in human U87 cells assessed as up regulation of chromobox 8 gene expression at cytotoxic IC50 measured after 48 hrs relative to control"}, "[8]": {"test": "Inhibition of RTK/PI3K/AKT/mTOR signaling in human U87 cells assessed as up regulation of neurexophilin 4 gene expression at cytotoxic IC50 measured after 48 hrs relative to control"}, "[9]": {"test": "Inhibition of RTK/PI3K/AKT/mTOR signaling in human U87 cells assessed as down regulation of GEM gene expression at cytotoxic IC50 measured after 48 hrs relative to control"}, "[10]": {"test": "Inhibition of RTK/PI3K/AKT/mTOR signaling in human U87 cells assessed as up regulation of ESRP1 gene expression at cytotoxic IC50 measured after 48 hrs relative to control"}, "[11]": {"test": "Inhibition of RTK/PI3K/AKT/mTOR signaling in human U87 cells assessed as up regulation of sirtuin 5 gene expression at cytotoxic IC50 measured after 48 hrs relative to control"}, "[12]": {"test": "Inhibition of RTK/PI3K/AKT/mTOR signaling in human U87 cells assessed as up regulation of SLC2A1 gene expression at cytotoxic IC50 measured after 48 hrs relative to control"}, "[13]": {"test": "Inhibition of RTK assessed as Inhibition of RTK/PI3K/AKT/mTOR signaling in human U87 cells assessed as down regulation of MAPK8 gene expression at cytotoxic IC50 measured after 48 hrs relative to control"}, "[14]": {"test": "Inhibition of RTK/PI3K/AKT/mTOR signaling in human U87 cells assessed as down regulation of CORO2B gene expression at cytotoxic IC50 measured after 48 hrs relative to control"}, "[15]": {"test": "Inhibition of RTK/PI3K/AKT/mTOR signaling in human U87 cells assessed as up regulation of RCOR2 gene expression at cytotoxic IC50 measured after 48 hrs relative to control"}, "[16]": {"test": "Inhibition of RTK/PI3K/AKT/mTOR signaling in human U87 cells assessed as down regulation of PPID gene expression at cytotoxic IC50 measured after 48 hrs relative to control"}, "[17]": {"test": "Inhibition of RTK/PI3K/AKT/mTOR signaling in human U87 cells assessed as up regulation of UDP-glucose glycoprotein glucosyltransferase 1 gene expression at cytotoxic IC50 measured after 48 hrs relative to control"}, "[18]": {"test": "Inhibition of RTK/PI3K/AKT/mTOR signaling in human U87 cells assessed as down regulation of SYDE2 gene expression at cytotoxic IC50 measured after 48 hrs relative to control"}, "[19]": {"test": "Inhibition of RTK/PI3K/AKT/mTOR signaling in human U87 cells assessed as up regulation of BTB domain containing 2 gene expression at cytotoxic IC50 measured after 48 hrs relative to control"}, "[20]": {"test": "Inhibition of RTK/PI3K/AKT/mTOR signaling in human U87 cells assessed as down regulation of GLRX2 gene expression at cytotoxic IC50 measured after 48 hrs relative to control"}, "[21]": {"test": "Inhibition of RTK/PI3K/AKT/mTOR signaling in human U87 cells assessed as up regulation of NOP53 gene expression at cytotoxic IC50 measured after 48 hrs relative to control"}, "[22]": {"test": "Inhibition of RTK/PI3K/AKT/mTOR signaling in human U87 cells assessed as down regulation of HIST1H2AC gene expression at cytotoxic IC50 measured after 48 hrs relative to control"}, "[23]": {"test": "Inhibition of RTK/PI3K/AKT/mTOR signaling in human U87 cells assessed as down regulation of TESK1 gene expression at cytotoxic IC50 measured after 48 hrs relative to control"}, "[24]": {"test": "Inhibition of RTK/PI3K/AKT/mTOR signaling in human U87 cells assessed as up regulation of OLA1 gene expression at cytotoxic IC50 measured after 48 hrs relative to control"}, "[25]": {"test": "Inhibition of RTK/PI3K/AKT/mTOR signaling in human U87 cells assessed as up regulation of procollagen-lysine,2-oxoglutarate 5-dioxygenase 3 gene expression at cytotoxic IC50 measured after 48 hrs relative to control"}, "[26]": {"test": "Inhibition of RTK/PI3K/AKT/mTOR signaling in human U87 cells assessed as down regulation of PPP3CC gene expression at cytotoxic IC50 measured after 48 hrs relative to control"}, "[27]": {"test": "Inhibition of RTK/PI3K/AKT/mTOR signaling in human U87 cells assessed as down regulation of ASNA1 gene expression at cytotoxic IC50 measured after 48 hrs relative to control"}, "[28]": {"test": "Inhibition of RTK/PI3K/AKT/mTOR signaling in human U87 cells assessed as up regulation of SH3PXD2A gene expression at cytotoxic IC50 measured after 48 hrs relative to control"}, "[29]": {"test": "Inhibition of RTK/PI3K/AKT/mTOR signaling in human U87 cells assessed as down regulation of EMC7 gene expression at cytotoxic IC50 measured after 48 hrs relative to control"}, "[30]": {"test": "Inhibition of RTK/PI3K/AKT/mTOR signaling in human U87 cells assessed as up regulation of ERF gene expression at cytotoxic IC50 measured after 48 hrs relative to control"}, "[31]": {"test": "Inhibition of RTK/PI3K/AKT/mTOR signaling in human U87 cells assessed as up regulation of VSIR gene expression at cytotoxic IC50 measured after 48 hrs relative to control"}, "[32]": {"test": "Inhibition of RTK/PI3K/AKT/mTOR signaling in human U87 cells assessed as up regulation of KIAA0895 like gene expression at cytotoxic IC50 measured after 48 hrs relative to control"}}, "note": "The source gives many values for each of these; only a part stands here.", "data": [{"smiles": "CC(=O)C(=NNc1ccccc1C#N)C(C)=O", "values": [{"measurement": "log2FC", "setting": "[1]", "result": -1.43}, {"measurement": "log2FC", "setting": "[2]", "result": 1.66}, {"measurement": "log2FC", "setting": "[3]", "result": 0.393}, {"measurement": "log2FC", "setting": "[4]", "result": -0.711}, {"measurement": "log2FC", "setting": "[5]", "result": -0.639}, {"measurement": "log2FC", "setting": "[6]", "result": -1.53}, {"measurement": "log2FC", "setting": "[7]", "result": 1.04}, {"measurement": "log2FC", "setting": "[8]", "result": 0.987}, {"measurement": "log2FC", "setting": "[9]", "result": -0.503}, {"measurement": "log2FC", "setting": "[10]", "result": 0.609}, {"measurement": "log2FC", "setting": "[11]", "result": 1.11}, {"measurement": "log2FC", "setting": "[12]", "result": 2.84}, {"measurement": "log2FC", "setting": "[13]", "result": -0.753}, {"measurement": "log2FC", "setting": "[14]", "result": -2.13}, {"measurement": "log2FC", "setting": "[15]", "result": 1.82}, {"measurement": "log2FC", "setting": "[16]", "result": -0.71}, {"measurement": "log2FC", "setting": "[17]", "result": 0.809}, {"measurement": "log2FC", "setting": "[18]", "result": -0.963}, {"measurement": "log2FC", "setting": "[19]", "result": 0.787}, {"measurement": "log2FC", "setting": "[20]", "result": -1.19}, {"measurement": "log2FC", "setting": "[21]", "result": 0.474}, {"measurement": "log2FC", "setting": "[22]", "result": -1.45}, {"measurement": "log2FC", "setting": "[23]", "result": -1.03}, {"measurement": "log2FC", "setting": "[24]", "result": 0.524}, {"measurement": "log2FC", "setting": "[25]", "result": 0.808}, {"measurement": "log2FC", "setting": "[26]", "result": -0.833}, {"measurement": "log2FC", "setting": "[27]", "result": -0.692}, {"measurement": "log2FC", "setting": "[28]", "result": 1.68}, {"measurement": "log2FC", "setting": "[29]", "result": -0.793}, {"measurement": "log2FC", "setting": "[30]", "result": 0.639}, {"measurement": "log2FC", "setting": "[31]", "result": 2.25}, {"measurement": "log2FC", "setting": "[32]", "result": 1.05}]}]}
